Data taken from PubChem BioAssay AID493014 (National Center for Advancing Translational Sciences (NCATS), 2011).
Hit rate of the full screen: of about 340,000 compounds, about 170 (0.05%) were called active. Inconclusive means that the source gave no clear call. Such entries were picked first, then a sample of the others. Calls follow the shape of the dose curve; as a rule, active = well fitted inhibition curve with a large enough effect in the signal ratio, with a control signal flat (not every such curve was filed as active); inconclusive = small, poorly fitted or top-dose-only effect, or effect the other way, or a change in a side signal; inactive = flat fitted curve, though single readings scatter; the % refers to the signal ratio. Potencies of inconclusive entries are doubtful fits and often do not repeat.

test: qHTS Assay to Find Inhibitors of Chronic Active B-Cell Receptor Signaling; conditions: ABC-DLBCL IkBa-CBG/CBR reporter, luminescence ratio (green luciferase fused to IkBa over red control in TMD8 lymphoma cells), 4 h; activity change, negative = inhibition: at 46.1 µM (top of the series);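 as to activity change, negative = inhibition: plate controls were basal doxycycline-induced cells for no effect and cells given 10 µM MG132 for full effect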
In short: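 Cell line TMD8 (human ABC DLBCL), stably expressing tet-inducible CBG68-IkBa fusion and CBR; IMDM/0.5% FBS; cpd up to 46 uM; dox induction, 4 h, 37C/5% CO2; dual luminescence; green/red ratio; MG132 control.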
Potency is read from the fitted curve at half-maximal effect.

SMILES | activity change, negative = inhibition | Potency
Cc1csc(NC(=O)Cc2ccc(Br)cc2)n1 | inconclusive: 6.73% | 
Cc1ccc(NC(=O)c2ccc(CSc3ccccn3)cc2)c(O)c1 | inconclusive: -0.19% | 
Cc1nn(-c2ccccc2)c(C)c1-c1nnc(C(F)(F)F)o1 | inconclusive: 0.0802% | 
COC(=O)c1ccc(NC(=O)c2cccc(OC)c2)cc1 |  | inconclusive: 6.31 µM [falling, single point]
CC[C@H](C)[C@@H](CNC)NC[C@@H](Cc1ccc(O)cc1)NCC(C)(C)C |  | inconclusive: 14.1 µM [falling, partial curve, poor fit]
C=CCN1C(=O)c2ccc(C(=O)OCC(=O)N(CC)C3CCS(=O)(=O)C3)cc2C1=O (stereo unspecified) |  | inconclusive: 16.4 µM [falling, single point]
O=C(COC(=O)c1c2c(nc3ccccc13)CCN(Cc1ccccc1)C2)Nc1c(F)cccc1F | inconclusive: 1.81% | 
Cc1ccc(C(=O)NCC(=O)Nc2ccc(C)c(S(=O)(=O)Nc3ccc(Cl)cc3)c2)s1 |  | inconclusive: 22.4 µM [falling, single point]
CS(=O)(=O)Nc1ccc(C2=NN(C(=O)c3ccco3)C(c3ccc(F)cc3)C2)cc1 (stereo unspecified) | inconclusive: 4.53% | 
CCOc1ccc2[nH]c(=O)c(CN(Cc3ccco3)C(=O)c3ccc(Br)cc3)cc2c1 | inactive: -4.07% | 
Cc1ccn2cc(C34CC5CC(CC(C5)C3)C4)nc2c1 | inactive: 9.48% | 
Cc1c(Cl)ccc2sc(N3CCN(C(=O)C4=COCCO4)CC3)nc12 | inconclusive: -5.16% | 
c1coc(CNc2nc3ccccc3n2CCN2CCOCC2)c1 | inconclusive: -15.6% | 
O=c1[nH]nc(SCCS(=O)(=O)c2ccc(F)cc2)n1-c1ccccc1C(F)(F)F |  | inconclusive: 22.4 µM [falling, partial curve]
CC1NC(=S)N(C2CCCCC2)C1=O (stereo unspecified) |  | inconclusive: 31.6 µM [rising, single point]
COc1cc(N)c(Cl)cc1C(=O)OCC(=O)NC1CCCC1 | inconclusive: -2.89% | 

SMILES | activity change, negative = inhibition | Potency
O=C(Nc1ccc2c(c1)OCCO2)C1CCCN1S(=O)(=O)c1ccc(Cl)cc1 (stereo unspecified) | inconclusive: 17.9% | 
Cc1cc(SCC(=O)NCCCN2CCCC2=O)nc2ccccc12 | inactive: 1.55% | 
NCCCCCc1nnc(SCc2ccccc2Cl)o1 |  | inconclusive: 5.62 µM [falling, partial curve, poor fit]
CC(C)(C)c1ccc(C(=O)N/C(=C\c2ccco2)C(=O)Nc2ccccc2C(=O)O)cc1 | inactive: 16.4% | 
Oc1ccc(O)c(Cc2nc3ccccc3[nH]2)c1 | inconclusive: -13.1% | 
CC(=O)NCCc1nc2cc(NC(=O)c3ccc(F)cc3)ccc2n1C |  | inconclusive: 17.8 µM [falling, partial curve]
COc1cccc2cc(/C(C)=N/NC(=O)c3ccco3)oc12 | inconclusive: -13.6% | 
Cc1ccc(NC(=O)c2ccc(F)cc2)cc1S(=O)(=O)N1CCCCCC1 | inconclusive: -0.474% | 
Cc1sc(NC(=O)CSc2ncn(-c3ccccc3)n2)nc1-c1ccccc1 | inactive: 18.2% | 
CS(=O)(=O)c1ccc(C(=O)NCCN2C(=O)S/C(=C\c3cccnc3)C2=O)cc1[N+](=O)[O-] |  | inconclusive: 3.55 µM [falling, single point]
CC1CC(C)CN(S(=O)(=O)c2ccc3c(c2)CC(C)N3C(=O)C2CCC2)C1 (stereo unspecified) | inactive: 4.93% | 
Cc1cccc(NC(=O)/C(C#N)=C/c2ccc(Sc3ccccc3)o2)c1C | inactive: 1.4% | 
COc1cc(CO)ccc1Oc1nnnn1-c1ccc(C(N)=O)cc1 | inconclusive: 1.42% | 
CCOc1ccc(NC(=O)c2c(Nc3ccccc3C)sc(C(=O)c3ccccc3)c2N)cc1 | inconclusive: -26.1% | 
Cc1ccc2nc3c(nc2c1C)CCCC3 | inactive: 0.791% | 
